Measured values as given in patent US20240025883A1, “PYRIMIDIN-2-YL SULFONAMIDE DERIVATIVES” (Hoffmann-La Roche Inc., priority 2021, published 2024).
pIC50: −log10 of the molar value. The match of structure and compound is tentative.

Amino acid sequences for entries named in this document (tags omitted). Residues count along the entry.
UniProt Q13304, 29-367 limits assumed: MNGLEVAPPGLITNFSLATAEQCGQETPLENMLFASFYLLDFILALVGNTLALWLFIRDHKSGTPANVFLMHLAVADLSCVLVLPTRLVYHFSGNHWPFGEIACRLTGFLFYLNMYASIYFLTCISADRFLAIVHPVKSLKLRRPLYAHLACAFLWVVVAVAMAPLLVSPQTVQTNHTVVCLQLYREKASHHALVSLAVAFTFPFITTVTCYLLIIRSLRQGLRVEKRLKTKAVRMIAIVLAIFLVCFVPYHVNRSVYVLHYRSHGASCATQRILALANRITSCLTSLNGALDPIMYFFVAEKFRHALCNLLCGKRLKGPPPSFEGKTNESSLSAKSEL

Target: human GPR17 short isoform (Homo sapiens (Human), UniProt Q13304)
Experiment: GPR17 cAMP assay (hGPR17 cAMP, antagonist mode against EC80 of MDL29,951)
Conditions: read-out: hGPR17 cAMP IC50; CHO-K1 cells stably expressing human GPR17 short isoform; EC80 of agonist MDL29,951; forskolin 15 μM
Method: GPR17 cAMP Assay Protocol:
CHO-K1 cells stably expressing vector containing untagged human GPR17 short isoform (Roche) were cultured at 37° C./5% CO2 in DMEM (Dulbecco's Modified Eagle Medium):F-12 (1:1) supplemented with 10% foetal bovine serum and 400 μg/ml Geneticin.
Changes in intracellular cyclic adenosine monophosphate (cAMP) levels were quantified using the Nano-TRF Detection Assay kit (Roche Diagnostics, Cat. No. 05214386001). This assay allows for direct cAMP quantification in a homogeneous solution, cAMP is detected based on time-resolved fluorescence energy transfer (TR-FRET) and competitive binding of ruthenylated cAMP and endogenous cAMP to an anti-cAMP monoclonal antibody labeled with AlexaFluor-700. The Ruthenium complex serves as the FRET donor and transfers energy to AlexaFluor-700. The FRET signal is inversely proportional to the cAMP concentration.
CHO-GPR17S cells were detached with Accutase and resuspended in assay buffer consisting of Hank's Balanced Salt Solution (HBSS), 10 mM HEPES (4-(2-hydroxyethyl) piperazine-1-ethanesulfonic acid solution) and 0.1% bovine serum albumin (pH 7.4). The cells were seeded in black 384-well plates (Corning) at a density of 10,000 cells/20 μl assay buffer until the addition of compounds. […]
Cellular cAMP was measured using a Paradigm reader (Molecular Devices). […]

| Structure (SMILES) | pIC50 |
| --- | --- |
| COc1nc(NS(=O)(=O)c2c[nH]c3cc(C(F)F)ccc23)nc(OC)c1OC(F)F | 7.54 |
| COc1nc(NS(=O)(=O)c2c[nH]c3cc(Cl)ccc23)nc(F)c1OCC(F)F | 6.85 |
